Holding throughout (test): co-IP
One test addresses Flag-MAVS (UniProt Q7Z434).
The target of a further test is T1, Flag-IRF3 (UniProt Q14653).
T1 sequence: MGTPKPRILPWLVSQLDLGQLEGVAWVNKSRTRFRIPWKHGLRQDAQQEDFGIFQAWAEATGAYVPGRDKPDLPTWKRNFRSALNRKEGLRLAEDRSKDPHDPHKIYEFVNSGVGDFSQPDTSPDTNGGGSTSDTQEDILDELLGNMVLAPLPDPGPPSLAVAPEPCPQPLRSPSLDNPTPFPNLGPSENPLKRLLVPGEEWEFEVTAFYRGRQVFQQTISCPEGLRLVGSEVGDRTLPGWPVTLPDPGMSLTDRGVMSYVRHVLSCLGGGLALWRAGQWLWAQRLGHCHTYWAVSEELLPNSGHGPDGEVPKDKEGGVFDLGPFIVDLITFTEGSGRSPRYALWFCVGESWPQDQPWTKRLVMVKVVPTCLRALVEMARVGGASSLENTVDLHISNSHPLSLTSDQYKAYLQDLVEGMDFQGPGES

Chains of the proteins cited; added tags and fusions are not shown.
UniProt Q7Z434: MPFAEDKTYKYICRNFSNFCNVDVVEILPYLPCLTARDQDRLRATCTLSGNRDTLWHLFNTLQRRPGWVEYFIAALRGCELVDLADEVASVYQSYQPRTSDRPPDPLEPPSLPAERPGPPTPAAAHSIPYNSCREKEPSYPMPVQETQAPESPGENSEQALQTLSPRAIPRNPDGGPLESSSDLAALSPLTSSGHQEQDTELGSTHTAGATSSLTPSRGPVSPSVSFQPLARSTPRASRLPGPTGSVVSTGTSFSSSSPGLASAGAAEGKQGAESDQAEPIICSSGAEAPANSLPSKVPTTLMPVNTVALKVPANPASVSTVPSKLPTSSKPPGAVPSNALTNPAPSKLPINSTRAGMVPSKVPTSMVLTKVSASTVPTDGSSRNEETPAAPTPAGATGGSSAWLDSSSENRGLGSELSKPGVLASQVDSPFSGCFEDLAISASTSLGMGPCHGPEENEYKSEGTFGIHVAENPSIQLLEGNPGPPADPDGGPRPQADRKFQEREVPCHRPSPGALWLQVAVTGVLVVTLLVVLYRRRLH

Test [1] has as its target T2, endogenous IRF3 (HEK293T cells) (human (endogenous in HEK293T)) (UniProt Q14653).
T2 sequence: T1 sequence

The results in this text go back to publication doi:10.1101/2021.12.01.470696.

Results are given in words; binding and its absence hold for the method and conditions named. In cells and extracts the contact can be indirect. Some entries that bind do so weakly or less than the wild type. For some assays here: Where a sequence is shown, tags or fusion partners need not be part of it.

B1: HA-MDA5 (protein, UniProt Q9BYX4 1-1025)
chain: MSNGYSTDENFRYLISCFRARVKMYIQVEPVLDYLTFLPAEVKEQIQRTVATSGNMQAVELLLSTLEKGVWHLGWTREFVEALRRTGSPLAARYMNPELTDLPSPSFENAHDEYLQLLNLLQPTLVDKLLVRDVLDKCMEEELLTIEDRNRIAAAENNGNESGVRELLKRIVQKENWFSAFLNVLRQTGNNELVQELTGSDCSESNAEIENLSQVDGPQVEEQLLSTTVQPNLEKEVWGMENNSSESSFADSSVVSESDTSLAEGSVSCLDESLGHNSNMGSDSGTMGSDSDEENVAARASPEPELQLRPYQMEVAQPALEGKNIIICLPTGSGKTRVAVYIAKDHLDKKKKASEPGKVIVLVNKVLLVEQLFRKEFQPFLKKWYRVIGLSGDTQLKISFPEVVKSCDIIISTAQILENSLLNLENGEDAGVQLSDFSLIIIDECHHTNKEAVYNNIMRHYLMQKLKNNRLKKENKPVIPLPQILGLTASPGVGGATKQAKAEEHILKLCANLDAFTIKTVKENLDQLKNQIQEPCKKFAIADATREDPFKEKLLEIMTRIQTYCQMSPMSDFGTQPYEQWAIQMEKKAAKEGNRKERVCAEHLRKYNEALQINDTIRMIDAYTHLETFYNEEKDKKFAVIEDDSDEGGDDEYCDGDEDEDDLKKPLKLDETDRFLMTLFFENNKMLKRLAENPEYENEKLTKLRNTIMEQYTRTEESARGIIFTKTRQSAYALSQWITENEKFAEVGVKAHHLIGAGHSSEFKPMTQNEQKEVISKFRTGKINLLIATTVAEEGLDIKECNIVIRYGLVTNEIAMVQARGRARADESTYVLVAHSGSGVIEHETVNDFREKMMYKAIHCVQNMKPEEYAHKILELQMQSIMEKKMKTKRNIAKHYKNNPSLITFLCKNCSVLACSGEDIHVIEKMHHVNMTPEFKELYIVRENKALQKKCADYQINGEIICKCGQAWGTMMVHKGLDLPCLKIRNFVVVFKNNSTKKQYKKWVELPITFPNLDYSECCLFSDED
Regarding B1, the binding result with Flag-MAVS is “binds”.

B2: HA-TBK1 (enzyme, UniProt Q9UHD2 1-729)
chain: MQSTSNHLWLLSDILGQGATANVFRGRHKKTGDLFAIKVFNNISFLRPVDVQMREFEVLKKLNHKNIVKLFAIEEETTTRHKVLIMEFCPCGSLYTVLEEPSNAYGLPESEFLIVLRDVVGGMNHLRENGIVHRDIKPGNIMRVIGEDGQSVYKLTDFGAARELEDDEQFVSLYGTEEYLHPDMYERAVLRKDHQKKYGATVDLWSIGVTFYHAATGSLPFRPFEGPRRNKEVMYKIITGKPSGAISGVQKAENGPIDWSGDMPVSCSLSRGLQVLLTPVLANILEADQEKCWGFDQFFAETSDILHRMVIHVFSLQQMTAHKIYIHSYNTATIFHELVYKQTKIISSNQELIYEGRRLVLEPGRLAQHFPKTTEENPIFVVSREPLNTIGLIYEKISLPKVHPRYDLDGDASMAKAITGVVCYACRIASTLLLYQELMRKGIRWLIELIKDDYNETVHKKTEVVITLDFCIRNIEKTVKVYEKLMKINLEAAELGEISDIHTKLLRLSSSQGTIETSLQDIDSRLSPGGSLADAWAHQEGTHPKDRNVEKLQVLLNCMTEIYYQFKKDKAERRLAYNEEQIHKFDKQKLYYHATKAMTHFTDECVKKYEAFLNKSEEWIRKMLHLRKQLLSLTNQCFDIEEEVSKYQEYTNELQETLPQKMFTASSGIKHTMTPIYPSSNTLVEMTLGMKKLKEEMEGVVKELAENNHILERFGSLTMDGGLRNVDCL
Regarding B2, the binding entry with Flag-IRF3 is recorded as “binds”.

B3: endogenous TBK1 (HEK293T cells) (enzyme, UniProt Q9UHD2 1-729)
chain: B2 chain
As to B3, in test [1], the binding result was “binds”.

B4: HA-IKKε (enzyme, UniProt Q14164 1-716)
chain: MQSTANYLWHTDDLLGQGATASVYKARNKKSGELVAVKVFNTTSYLRPREVQVREFEVLRKLNHQNIVKLFAVEETGGSRQKVLVMEYCSSGSLLSVLESPENAFGLPEDEFLVVLRCVVAGMNHLRENGIVHRDIKPGNIMRLVGEEGQSIYKLTDFGAARELDDDEKFVSVYGTEEYLHPDMYERAVLRKPQQKAFGVTVDLWSIGVTLYHAATGSLPFIPFGGPRRNKEIMYRITTEKPAGAIAGAQRRENGPLEWSYTLPITCQLSLGLQSQLVPILANILEVEQAKCWGFDQFFAETSDILQRVVVHVFSLSQAVLHHIYIHAHNTIAIFQEAVHKQTSVAPRHQEYLFEGHLCVLEPSVSAQHIAHTTASSPLTLFSTAIPKGLAFRDPALDVPKFVPKVDLQADYNTAKGVLGAGYQALRLARALLDGQELMFRGLHWVMEVLQATCRRTLEVARTSLLYLSSSLGTERFSSVAGTPEIQELKAAAELRSRLRTLAEVLSRCSQNITETQESLSSLNRELVKSRDQVHEDRSIQQIQCCLDKMNFIYKQFKKSRMRPGLGYNEEQIHKLDKVNFSHLAKRLLQVFQEECVQKYQASLVTHGKRMRVVHETRNHLRLVGCSVAACNTEAQGVQESLSKLLEELSHQLLQDRAKGAQASPPPIAPYPSPTRKDLLLHMQELCEGMKLLASDLLDNNRIIERLNRVPAPPDV
On to B4, for which the binding result with Flag-IRF3 is on record as “binds”.

B5: endogenous IKKε (HEK293T cells) (enzyme, UniProt Q14164 1-716)
chain: B4 chain
Take B5: the binding result in test [1] is on record as “binds”.
